Earlier results in US20140221207A1, “ISOLATED BACTERIAL STRAIN OF THE GENUS BURKHOLDERIA AND PESTICIDAL METABOLITES THEREFROM- FORMULATIONS AND USES” (MARRONE BIO INNOVATIONS, INC., priority 2011, published 2014).
At least one structure is not confirmed: it was looked up by name or label, or the drawing left a doubt.

Tested on: B. cepacia complex
Conditions: 2,621 strains in B. cepacia complex; cited from earlier work

## C[C@@H](O)[C@H]1C(=O)N2C(C(=O)O)=C(SCCN=CN)C[C@H]12 [Imipenem]
  share of strains susceptible: 7%
